PubChem BioAssay AID504764 | Drosophila RNAi Screening Center – 2011
In all, the deposit lists about 22,000 reagents; below is an unselected part of those with a known target gene and a result. Over the whole deposit, 403 (1.9%) are marked active. 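Unnormalised raw counts per well; ratio z-scores behind the hit calls and whether each hit raises or lowers signal are not deposited.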 Entries without a mark were called inactive. Not stated in the record: the amount of reagent.

- Screen: 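Knock-downs that raise or lower a Notch target reporter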 (primary screen)
- Cell system: Drosophila Kc167 cells
- Knock-down reagent: long dsRNA against Drosophila genes
- Time to read-out: about 5 days (4 days dsRNA, then 24 h after transfection)
- Treatment: transfection of constitutively active membrane-tethered Notch lacking the extracellular domain, read 24 h later
- Measurement: 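Light from a Notch-responsive E(spl)m3 luciferase reporter under active Notch, with control-promoter and no-Notch reporter wells to normalise; raw counts from paired wells a and b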
- Reading the numbers: induced reporter light, run 1, well a and induced reporter light, run 1, well b: higher = more light from the Notch target reporter with active Notch; control promoter light, run 1, well a and control promoter light, run 1, well b: higher = more light from the viral control promoter (cell number, transfection, viability); uninduced reporter light, run 1, well a: higher = more light from the Notch target reporter without active Notch
- Call rule: 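Hit if the duplicate-averaged log2 ratio of induced to control-promoter light gives a plate-wise z beyond ±2, or induced to uninduced beyond ±1.8; weak-control or discordant-duplicate wells dropped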
- Calls: active = modifier hit (raised or lowered Notch signal); inactive = not a hit

Silencing of CG12321 gave: induced reporter light, run 1, well a = 2.13e5; induced reporter light, run 1, well b = 2.00e5; control promoter light, run 1, well a = 2.56e5; control promoter light, run 1, well b = 2.70e5; uninduced reporter light, run 1, well a = 16680.
Knock-down of Coq3 gave: induced reporter light, run 1, well a = 2.09e5; induced reporter light, run 1, well b = 2.03e5; control promoter light, run 1, well a = 1.47e5; control promoter light, run 1, well b = 2.08e5; uninduced reporter light, run 1, well a = 14878.
For Atg6, the entry reads induced reporter light, run 1, well a = 67600; induced reporter light, run 1, well b = 66630; control promoter light, run 1, well a = 78390; control promoter light, run 1, well b = 95510; uninduced reporter light, run 1, well a = 4432.
Depletion of CG34203 resulted in: induced reporter light, run 1, well a = 61650; induced reporter light, run 1, well b = 61750; control promoter light, run 1, well a = 66945; control promoter light, run 1, well b = 87425; uninduced reporter light, run 1, well a = 8485.
CG5447 showed induced reporter light, run 1, well a = 1.58e5; induced reporter light, run 1, well b = 1.47e5; control promoter light, run 1, well a = 1.70e5; control promoter light, run 1, well b = 2.01e5; uninduced reporter light, run 1, well a = 15210.
With knock-down of PIG-T, the screen gave induced reporter light, run 1, well a = 1.71e5; induced reporter light, run 1, well b = 1.69e5; control promoter light, run 1, well a = 2.56e5; control promoter light, run 1, well b = 3.10e5; uninduced reporter light, run 1, well a = 14245.
After knock-down of Hs3st-B the results were induced reporter light, run 1, well a = 1.05e5; induced reporter light, run 1, well b = 1.03e5; control promoter light, run 1, well a = 1.01e5; control promoter light, run 1, well b = 1.49e5; uninduced reporter light, run 1, well a = 13145.
Obp56e showed induced reporter light, run 1, well a = 83435; induced reporter light, run 1, well b = 78355; control promoter light, run 1, well a = 1.19e5; control promoter light, run 1, well b = 81785; uninduced reporter light, run 1, well a = 9550.

2 entries from above, set out differently.
{"gene": "Atg6", "induced reporter light, run 1, well a": 67600, "induced reporter light, run 1, well b": 66630, "control promoter light, run 1, well a": 78390, "control promoter light, run 1, well b": 95510, "uninduced reporter light, run 1, well a": 4432}
{"gene": "CG34203", "induced reporter light, run 1, well a": 61650, "induced reporter light, run 1, well b": 61750, "control promoter light, run 1, well a": 66945, "control promoter light, run 1, well b": 87425, "uninduced reporter light, run 1, well a": 8485}

Additional entries follow.
With knock-down of betaggt-I the results were induced reporter light, run 1, well a = 68030; induced reporter light, run 1, well b = 67320; control promoter light, run 1, well a = 83235; control promoter light, run 1, well b = 49035; uninduced reporter light, run 1, well a = 3740.
For CG18367 the deposit lists induced reporter light, run 1, well a = 1.23e5; induced reporter light, run 1, well b = 97195; control promoter light, run 1, well a = 85895; control promoter light, run 1, well b = 1.03e5; uninduced reporter light, run 1, well a = 6940.
With knock-down of CG13063, the record shows induced reporter light, run 1, well a = 1.51e5; induced reporter light, run 1, well b = 1.58e5; control promoter light, run 1, well a = 2.07e5; control promoter light, run 1, well b = 2.22e5; uninduced reporter light, run 1, well a = 7975.
With knock-down of UQCR-Q the results were induced reporter light, run 1, well a = 1.82e5; induced reporter light, run 1, well b = 1.59e5; control promoter light, run 1, well a = 2.04e5; control promoter light, run 1, well b = 1.85e5; uninduced reporter light, run 1, well a = 6340.
Depletion of Myo28B1 resulted in: induced reporter light, run 1, well a = 1.55e5; induced reporter light, run 1, well b = 1.56e5; control promoter light, run 1, well a = 1.68e5; control promoter light, run 1, well b = 2.06e5; uninduced reporter light, run 1, well a = 10860.
With knock-down of Syx17 the results were induced reporter light, run 1, well a = 1.78e5; induced reporter light, run 1, well b = 1.33e5; control promoter light, run 1, well a = 88190; control promoter light, run 1, well b = 53180; uninduced reporter light, run 1, well a = 13425.
BobA gave induced reporter light, run 1, well a = 1.74e5; induced reporter light, run 1, well b = 1.98e5; control promoter light, run 1, well a = 2.54e5; control promoter light, run 1, well b = 1.93e5; uninduced reporter light, run 1, well a = 8255.
Against RpS3, the entry reads induced reporter light, run 1, well a = 14550; induced reporter light, run 1, well b = 14970; control promoter light, run 1, well a = 12130; control promoter light, run 1, well b = 14445; uninduced reporter light, run 1, well a = 828.
For CG2267, the entry reads induced reporter light, run 1, well a = 1.55e5; induced reporter light, run 1, well b = 1.47e5; control promoter light, run 1, well a = 2.07e5; control promoter light, run 1, well b = 2.37e5; uninduced reporter light, run 1, well a = 12445.
Silencing of ttm2 gave: induced reporter light, run 1, well a = 1.67e5; induced reporter light, run 1, well b = 1.33e5; control promoter light, run 1, well a = 2.28e5; control promoter light, run 1, well b = 2.77e5; uninduced reporter light, run 1, well a = 9932.
